Experimental findings from article PMC10756122 are described below.

The chains behind the UniProt entries cited, without tags or fusion partners. Where a name states a change or a piece, a line headed by the entry shows the natural chain unless it says otherwise. Residues count along the entry.
UniProt P12830: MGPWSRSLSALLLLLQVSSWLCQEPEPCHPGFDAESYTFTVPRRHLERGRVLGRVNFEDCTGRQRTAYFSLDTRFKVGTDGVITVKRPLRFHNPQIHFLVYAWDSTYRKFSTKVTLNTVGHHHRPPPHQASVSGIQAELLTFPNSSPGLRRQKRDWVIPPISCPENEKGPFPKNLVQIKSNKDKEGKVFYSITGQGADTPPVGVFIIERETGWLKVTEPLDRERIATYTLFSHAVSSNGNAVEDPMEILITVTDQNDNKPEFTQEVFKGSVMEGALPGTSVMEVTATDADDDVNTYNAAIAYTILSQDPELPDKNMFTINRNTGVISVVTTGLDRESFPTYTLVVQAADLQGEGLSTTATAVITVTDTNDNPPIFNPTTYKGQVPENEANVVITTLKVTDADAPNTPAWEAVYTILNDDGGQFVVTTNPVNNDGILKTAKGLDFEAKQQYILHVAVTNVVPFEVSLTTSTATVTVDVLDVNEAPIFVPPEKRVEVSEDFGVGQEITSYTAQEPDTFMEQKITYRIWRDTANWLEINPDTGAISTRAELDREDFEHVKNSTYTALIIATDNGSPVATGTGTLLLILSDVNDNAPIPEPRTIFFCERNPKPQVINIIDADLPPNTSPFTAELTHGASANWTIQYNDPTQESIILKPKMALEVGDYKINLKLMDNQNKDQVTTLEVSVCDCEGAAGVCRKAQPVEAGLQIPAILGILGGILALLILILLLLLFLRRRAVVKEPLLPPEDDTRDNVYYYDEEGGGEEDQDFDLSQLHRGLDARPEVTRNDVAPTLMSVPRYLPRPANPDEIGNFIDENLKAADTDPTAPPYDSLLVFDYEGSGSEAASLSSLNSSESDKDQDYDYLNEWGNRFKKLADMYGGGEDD
UniProt P19022: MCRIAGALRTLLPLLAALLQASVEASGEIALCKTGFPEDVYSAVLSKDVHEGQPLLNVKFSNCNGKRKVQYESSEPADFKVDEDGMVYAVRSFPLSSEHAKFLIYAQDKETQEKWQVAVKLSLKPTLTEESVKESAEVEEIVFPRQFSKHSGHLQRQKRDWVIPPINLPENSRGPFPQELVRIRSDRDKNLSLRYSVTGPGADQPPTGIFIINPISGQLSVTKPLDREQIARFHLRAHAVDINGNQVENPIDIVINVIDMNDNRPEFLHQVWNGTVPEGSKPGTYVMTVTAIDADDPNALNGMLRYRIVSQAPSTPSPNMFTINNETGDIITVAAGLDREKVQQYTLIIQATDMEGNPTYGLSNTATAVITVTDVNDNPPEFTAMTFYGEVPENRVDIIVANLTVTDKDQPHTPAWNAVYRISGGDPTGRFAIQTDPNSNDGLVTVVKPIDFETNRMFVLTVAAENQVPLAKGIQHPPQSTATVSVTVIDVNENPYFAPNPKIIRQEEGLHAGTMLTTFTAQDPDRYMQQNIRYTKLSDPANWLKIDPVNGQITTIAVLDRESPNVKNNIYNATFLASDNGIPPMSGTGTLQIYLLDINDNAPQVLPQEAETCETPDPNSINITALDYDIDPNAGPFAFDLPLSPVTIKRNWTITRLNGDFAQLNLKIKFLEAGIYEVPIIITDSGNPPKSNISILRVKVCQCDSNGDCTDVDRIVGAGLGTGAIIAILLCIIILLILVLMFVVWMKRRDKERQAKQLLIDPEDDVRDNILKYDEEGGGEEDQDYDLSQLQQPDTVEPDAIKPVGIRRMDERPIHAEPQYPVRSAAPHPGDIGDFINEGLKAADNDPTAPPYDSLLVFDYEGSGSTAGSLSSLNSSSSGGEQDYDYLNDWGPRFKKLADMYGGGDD
UniProt P02751, residues 32-2477: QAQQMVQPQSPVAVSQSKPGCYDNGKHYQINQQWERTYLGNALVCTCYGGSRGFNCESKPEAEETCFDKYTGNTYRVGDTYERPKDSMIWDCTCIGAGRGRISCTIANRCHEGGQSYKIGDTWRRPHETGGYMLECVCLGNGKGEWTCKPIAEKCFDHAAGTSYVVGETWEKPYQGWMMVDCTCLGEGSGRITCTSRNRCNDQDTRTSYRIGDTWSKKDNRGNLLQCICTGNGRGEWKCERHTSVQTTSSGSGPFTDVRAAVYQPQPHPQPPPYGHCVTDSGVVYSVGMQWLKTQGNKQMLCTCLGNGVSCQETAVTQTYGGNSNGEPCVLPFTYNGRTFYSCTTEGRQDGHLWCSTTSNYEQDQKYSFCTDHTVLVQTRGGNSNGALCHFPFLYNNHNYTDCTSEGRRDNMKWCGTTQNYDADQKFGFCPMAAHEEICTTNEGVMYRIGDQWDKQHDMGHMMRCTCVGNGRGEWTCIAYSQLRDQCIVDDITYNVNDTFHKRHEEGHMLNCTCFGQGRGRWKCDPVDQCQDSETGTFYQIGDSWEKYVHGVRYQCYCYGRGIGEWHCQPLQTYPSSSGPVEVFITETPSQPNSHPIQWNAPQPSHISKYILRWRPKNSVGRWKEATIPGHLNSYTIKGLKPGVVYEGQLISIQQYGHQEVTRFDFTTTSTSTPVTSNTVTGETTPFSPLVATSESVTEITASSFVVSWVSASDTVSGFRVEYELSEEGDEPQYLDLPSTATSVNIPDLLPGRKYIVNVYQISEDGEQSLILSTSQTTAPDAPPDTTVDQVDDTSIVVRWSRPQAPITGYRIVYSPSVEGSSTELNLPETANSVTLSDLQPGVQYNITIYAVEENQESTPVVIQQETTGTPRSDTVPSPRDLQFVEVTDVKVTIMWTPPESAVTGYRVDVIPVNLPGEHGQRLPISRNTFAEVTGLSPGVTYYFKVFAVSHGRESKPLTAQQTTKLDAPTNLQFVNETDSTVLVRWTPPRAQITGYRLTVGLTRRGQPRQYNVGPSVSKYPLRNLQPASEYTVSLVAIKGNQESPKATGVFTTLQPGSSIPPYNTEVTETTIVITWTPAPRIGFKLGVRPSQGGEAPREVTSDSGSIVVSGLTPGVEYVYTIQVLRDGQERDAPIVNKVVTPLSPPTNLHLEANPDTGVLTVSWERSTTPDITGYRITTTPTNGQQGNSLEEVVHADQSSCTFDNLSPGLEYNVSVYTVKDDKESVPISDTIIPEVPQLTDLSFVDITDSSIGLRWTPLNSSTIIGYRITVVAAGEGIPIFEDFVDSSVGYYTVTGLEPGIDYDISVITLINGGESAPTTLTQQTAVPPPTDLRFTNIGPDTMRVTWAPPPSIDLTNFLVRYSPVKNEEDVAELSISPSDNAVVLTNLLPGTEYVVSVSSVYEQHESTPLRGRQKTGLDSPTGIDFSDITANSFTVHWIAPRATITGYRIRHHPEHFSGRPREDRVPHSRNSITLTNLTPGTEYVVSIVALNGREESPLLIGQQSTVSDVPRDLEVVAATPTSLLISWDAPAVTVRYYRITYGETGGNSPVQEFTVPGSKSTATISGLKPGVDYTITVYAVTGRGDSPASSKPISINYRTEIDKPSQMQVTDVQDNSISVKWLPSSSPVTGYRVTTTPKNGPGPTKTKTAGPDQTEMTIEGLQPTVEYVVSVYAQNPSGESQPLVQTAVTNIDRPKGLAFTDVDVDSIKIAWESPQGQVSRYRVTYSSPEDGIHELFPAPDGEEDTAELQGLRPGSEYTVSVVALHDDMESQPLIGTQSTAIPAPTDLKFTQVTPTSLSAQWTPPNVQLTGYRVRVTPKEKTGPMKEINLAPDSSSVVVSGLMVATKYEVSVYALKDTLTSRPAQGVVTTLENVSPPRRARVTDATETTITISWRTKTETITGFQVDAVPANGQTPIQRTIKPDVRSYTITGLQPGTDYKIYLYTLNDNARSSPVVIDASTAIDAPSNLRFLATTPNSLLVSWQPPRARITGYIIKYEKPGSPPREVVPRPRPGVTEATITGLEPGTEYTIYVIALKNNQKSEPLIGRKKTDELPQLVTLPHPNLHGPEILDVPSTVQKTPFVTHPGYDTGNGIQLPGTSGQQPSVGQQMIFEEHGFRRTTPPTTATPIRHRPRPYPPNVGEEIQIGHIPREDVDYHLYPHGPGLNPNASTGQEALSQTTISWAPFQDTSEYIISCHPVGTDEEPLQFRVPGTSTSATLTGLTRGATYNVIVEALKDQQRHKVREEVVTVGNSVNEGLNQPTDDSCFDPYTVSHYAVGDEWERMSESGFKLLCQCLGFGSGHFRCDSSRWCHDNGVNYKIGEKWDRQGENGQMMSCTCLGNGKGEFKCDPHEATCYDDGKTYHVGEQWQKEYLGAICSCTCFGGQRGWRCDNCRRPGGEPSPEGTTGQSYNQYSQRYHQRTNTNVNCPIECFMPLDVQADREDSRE
UniProt O60911: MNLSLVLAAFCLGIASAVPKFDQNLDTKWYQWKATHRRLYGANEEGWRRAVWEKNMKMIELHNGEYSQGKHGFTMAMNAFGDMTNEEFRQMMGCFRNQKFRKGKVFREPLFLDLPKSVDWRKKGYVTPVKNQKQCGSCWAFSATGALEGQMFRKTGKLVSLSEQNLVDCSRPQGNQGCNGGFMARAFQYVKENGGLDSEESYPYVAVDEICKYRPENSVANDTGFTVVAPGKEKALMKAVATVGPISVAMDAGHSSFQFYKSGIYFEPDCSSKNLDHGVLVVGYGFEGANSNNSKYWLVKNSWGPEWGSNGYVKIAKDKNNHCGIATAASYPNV

Results are given in words; binding and its absence hold for the method and conditions named. Binding seen in cells or lysates may run through a third protein. A result given as binding can be weak or reduced; the word gives no strength.

For test [1], the target named is E-cadherin, endogenous (human (endogenous in A549 and NCI-H1975)) (UniProt P12830). Nature of the test: co-IP; lysate (RIPA) of A549 cells stably expressing CTSV-HA; IP with anti-fibronectin, anti-E-cadherin and anti-N-cadherin antibodies; Western blotting. Background: A western blot detects proteins with antibodies after separation by electrophoresis.
Test [2] concerns the target N-cadherin, endogenous (human (endogenous in A549 and NCI-H1975)) (UniProt P19022). The description is as above.
For test [3], the target named is fibronectin, endogenous (human (endogenous in A549 and NCI-H1975)) (UniProt P02751). The test is described as above.
The target in test [4] is Cathepsin V (CTSV), endogenous (human (endogenous in A549)) (UniProt O60911). Nature of the test: co-IP; endogenous proteins, A549 lysate (RIPA); IP with antibody and control IgG; immunoblotting.

For “CTSV-HA (HA-tagged Cathepsin V) (from UniProt O60911) (enzyme)”, the binding entry in test [1], in test [2] and in test [3] was “binds” throughout.

In the case of “E-cadherin, endogenous (from UniProt P12830)”, the binding entry in test [4] is given as “binds”.

On to “fibronectin, endogenous (from UniProt P02751 32-2477)”, for which the binding entry in test [4] is recorded as “binds”.
